Test results published in paper PMC8264304.
These are yes or no findings as the source states them, for the method shown. Some binding calls cover weakened binding; strength is not graded here.

B1: MexR of P. aeruginosa clinical isolate CSP18 (protein, UniProt P52003 1-147)
chain: MNYPVNPDLMPALMAVFQHVRTRIQSELDCQRLDLTPPDVHVLKLIDEQRGLNLQDLGRQMCRDKALITRKIRELEGRNLVRRERNPSDQRSFQLFLTDEGLAIHQHAEAIMSRVHDELFAPLTPVEQATLVHLLDQCLAAQPLEDI

Legend:
[1] = target: MexR (R70Q) of P. aeruginosa clinical isolate ARP36 (Pseudomonas aeruginosa (clinical isolate ARP36)) (UniProt P52003); assay: two-hybrid; bacterial two-hybrid system (Stratagene); mexR genes cloned into both pTRG (prey) and pBT (bait); interaction assessed by beta-galactosidase activity in the reporter strains
[2] = target: MexR of P. aeruginosa clinical isolate CSP18 (Pseudomonas aeruginosa (clinical isolate CSP18)) (UniProt P52003); assay: as above

Molecule | binding [1] | binding [2]
MexR (R70Q) of P. aeruginosa clinical isolate ARP36 (from UniProt P52003 1-147) | binds | 
B1 | binds | binds
